The list shows only some results of the screen, not a fair sample: it gathers tests that were run many times, whatever their T/C, doses with no T/C, and many T/C values between a quarter and a half above the control. Other doses and runs of a compound stand elsewhere. T/C: endpoint of the treated group in % of that of the vehicle group. Some doses have a count of surviving animals in place of a T/C: the source files T/C as zero there, which appears to mark a toxic dose or a test without result, not a measured value. Some survivor counts are full or nearly so, which does not show that the dose was tolerated: survival well below the control is almost never listed, so the zero probably covers shortened survival too. Survivors were counted at the toxicity check, usually on the fifth day, unless a day is given; later deaths do not show. Schedule codes are those of the source, taken here to give the interval after Q, in days (D) or hours (H), and the number of doses after X. Some doses were run more than once; their values stand side by side, smallest first. For survival time, the PubChem record calls one and a half times the control and up active, and a quarter to a half above the control has no call in these data; cut-offs in other NCI protocols can differ. Residues, ends and D or L forms follow the SMILES beside them.
Test system: BDF1 mice, P388 leukemia ip, median survival T/C
Assay: NCI In Vivo Anticancer Drug Screen. Data for tumor model P388 Leukemia (intraperitoneal) in B6D2F1 (BDF1) mice
Conditions: T/C endpoint: median survival time, higher T/C = longer survival
Method in brief: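 T/C = treated-group survival ÷ vehicle-control survival; tumour transplanted into mice before dosing.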

[1] = dose: 400.0 mg/kg/injection, schedule: Q04DX003 (ip), vehicle: saline
[2] = dose: 12.5 mg/kg/injection, schedule: Q01DX009 (ip), vehicle: water
[3] = dose: 100.0 mg/kg/injection, schedule: Q04DX003 (ip), vehicle: saline sonified
[4] = dose: 100.0 mg/kg/injection, schedule: Q01DX005 (ip), vehicle: saline with Tween-80
[5] = dose: 25.0 mg/kg/injection, schedule: Q01DX009 (ip), vehicle: Klucel (hydroxypropylcellulose) (HPC)
[6] = dose: 100.0 mg/kg/injection, schedule: Q01DX009 (ip), vehicle: Klucel (hydroxypropylcellulose) (HPC)
[7] = dose: 200.0 mg/kg/injection, schedule: Q01DX009 (ip), vehicle: Klucel (hydroxypropylcellulose) (HPC)
[8] = dose: 400.0 mg/kg/injection, schedule: Q01DX009 (ip), vehicle: saline with Tween-80
[9] = dose: 50.0 mg/kg/injection, schedule: Q01DX009 (ip), vehicle: saline with Tween-80
[10] = dose: 100.0 mg/kg/injection, schedule: Q01DX009 (ip), vehicle: saline with Tween-80
[11] = dose: 200.0 mg/kg/injection, schedule: Q01DX009 (ip), vehicle: saline with Tween-80
[12] = dose: 50.0 mg/kg/injection, schedule: Q04DX003 (ip), vehicle: saline with Tween-80
[13] = dose: 200.0 mg/kg/injection, schedule: Q01DX009 (ip), vehicle: saline
[14] = dose: 50.0 mg/kg/injection, schedule: Q01DX009 (ip), vehicle: Klucel (hydroxypropylcellulose) (HPC)

In the case of `COc1cccc(CC(N)=O)c1OC`, the survivor count [1] is reported as 6 of 6.

For `NCCCCC(N)C(=O)NC(CCCN=C(N)N)C(=O)O` (stereo not drawn) (H-Lys-Arg-OH; configuration not given here), the survivor count [2] was 6 of 6.

With `[O-]/C(CCl)=N\[n+]1c2c(nc3ccccc31)-c1cccc3cccc-2c13` the T/C (dose: 50.0 mg/kg/injection, schedule: Q01DX001 (ip), vehicle: Klucel (hydroxypropylcellulose) (HPC)) was 135 % of control.

In the case of `CC1(c2ccc(Cl)cc2)NC(=O)NC1=O` (centres undefined), the survivor count [3] is reported as 6 of 6.

In the case of `CCOC(=O)/C(N=O)=C(\O)c1ccc2ccccc2n1`, the T/C [2] is reported as 128 % of control.

With `C(COCCOCC1CO1)OCCOCC1CO1` (centres undefined) the T/C (dose: 100.0 mg/kg/injection, schedule: Q01DX010 (ip), vehicle: saline) was 127 % of control and the survivor count (dose: 800.0 mg/kg/injection, schedule: Q01DX010 (ip), vehicle: saline) was 2 of 6.

In the case of `O=[N+]([O-])c1ccc(C2=C[P+](c3ccccc3)(c3ccccc3)C=C(c3ccccc3)O2)cc1`, the survivor count (dose: 50.0 mg/kg/injection, schedule: Q01DX005 (ip), vehicle: saline with Tween-80) is reported as 0 of 5, the survivor count [4] is reported as 0 of 5 and the survivor count (dose: 200.0 mg/kg/injection, schedule: Q01DX005 (ip), vehicle: saline with Tween-80) is reported as 0 of 5.

In the case of `Nc1c(Br)cc2c(c1Br)Cc1cc(Cl)ccc1-2`, the survivor count [5] is reported as 6 of 6, the survivor count [6] is reported as 5 of 6 and 6 of 6 and the survivor count [7] is reported as 5 of 6. For the same molecule, the survivor count (dose: 200.0 mg/kg/injection, schedule: Q04DX003 (ip), vehicle: Klucel (hydroxypropylcellulose) (HPC)) was 6 of 6.

With `Cc1cnc2ncn(Cc3c[nH]c(=O)[nH]c3=O)c(=O)c2c1` the T/C (dose: 50.0 mg/kg/injection, schedule: Q01DX001 (ip), vehicle: saline with Tween-80) was 126 % of control and the survivor count (dose: 100.0 mg/kg/injection, schedule: Q01DX001 (ip), vehicle: saline with Tween-80) was 0 of 6.

In the case of `C=CCN1c2ccccc2Sc2cnccc21`, the survivor count [8] is reported as 1 of 6.

For `ClCCCN1CCN(CCCCl)CC1`, the T/C (dose: 50.0 mg/kg/injection, schedule: Q01DX009 (ip), vehicle: distilled water + alcohol) was 144 % of control and the survivor count (dose: 200.0 mg/kg/injection, schedule: Q01DX009 (ip), vehicle: distilled water + alcohol) was 0 of 6.

With `C[N+](C)(Cn1ncc2cc([N+](=O)[O-])ccc21)Cn1ncc2cc([N+](=O)[O-])ccc21` the survivor count (dose: 400.0 mg/kg/injection, schedule: Q04DX003 (ip), vehicle: saline with Tween-80) was 2 of 6.

In the case of `c1ccc(-c2nc3ccccc3nc2-c2ccc(-c3nc4ccccc4nc3-c3ccccc3)cc2)cc1`, the survivor count [9] is reported as 6 of 6, the survivor count [10] is reported as 5 of 6 and the survivor count [11] is reported as 6 of 6.

With `O=NN(CCCl)C(=O)NC1CC2CCC1C2` (centres undefined) the T/C [12] was 131 % of control.

With `O=C(CN1CCCCC1)c1ccc2c(c1)Cc1cc(C(=O)CN3CCCCC3)ccc1O2` the survivor count [11] was 3 of 6.

For `O=C1C(Cl)=C(Cl)C(=O)C2=C1C1c3ccccc3C2c2ccccc21`, the T/C [3] was 131 % of control.

`COc1c(Br)cc(/C=C/[N+](=O)[O-])cc1Br` was tested, and the T/C (dose: 6.25 mg/kg/injection, schedule: Q01DX009 (ip), vehicle: saline with Tween-80) was 132 % of control, the T/C (dose: 12.5 mg/kg/injection, schedule: Q01DX009 (ip), vehicle: saline with Tween-80) was 127 % of control and the T/C (dose: 25.0 mg/kg/injection, schedule: Q01DX009 (ip), vehicle: saline with Tween-80) was 137 % of control. For the same molecule, the survivor count [9] was 0 of 6 and 1 of 6, the survivor count [10] was 0 of 6 and the survivor count [11] was 0 of 6.

`O=C(Nc1ccc(NC(=O)Nc2ccc(C3=NCCCN3)cc2)cc1)Nc1ccc(C2=NCCCN2)cc1` was tested, and the T/C (dose: 40.0 mg/kg/injection, schedule: Q04DX003 (ip), vehicle: saline) was 140 % of control.

With `Cc1cc(NCCCCCCNc2cc(C)nc3ccc(N)cc23)c2cc(N)ccc2n1` the survivor count (dose: 300.0 mg/kg/injection, schedule: Q04DX003 (ip), vehicle: Klucel (hydroxypropylcellulose) (HPC)) was 6 of 6.

`CN(C)CC(Cl)CCl` (centres undefined) was tested, and the T/C (dose: 50.0 mg/kg/injection, schedule: Q01DX009 (ip), vehicle: saline) was 127 % of control and the survivor count (dose: 600.0 mg/kg/injection, schedule: Q01DX009 (ip), vehicle: saline) was 0 of 6.

In the case of `O=C1c2ccccc2C(=O)C1C(C[N+](=O)[O-])c1ccccc1` (centres undefined), the survivor count [4] is reported as 3 of 5.

`CC(O)C1CCCNC1` (centres undefined) was tested, and the survivor count [13] was 5 of 6 and the survivor count [1] was 5 of 6.

In the case of `CCCCCCCCSC(=S)N(C)NC(=O)c1ccccn1`, the survivor count [11] is reported as 3 of 6.

For `CC1C2CCC3C4CC=C5CC(N(C)C)CCC5(C)C4CCC32CN1C` (centres undefined), the survivor count (dose: 100.0 mg/kg/injection, schedule: Q01DX009 (ip), vehicle: saline) was 1 of 6, the survivor count [13] was 0 of 6 and the survivor count (dose: 400.0 mg/kg/injection, schedule: Q01DX009 (ip), vehicle: saline) was 0 of 6.

With `CCCCC(CC)COP(=O)(CC(CC)CCCC)OCC(CC)CCCC` (centres undefined) the survivor count [9] was 6 of 6 and the survivor count [10] was 4 of 6.

For `CCOc1ccc(/C=N\N=C\c2ccc(OCC)cc2)cc1`, the survivor count [14] was 6 of 6, the survivor count [6] was 6 of 6 and the survivor count [7] was 6 of 6. For the same molecule, the survivor count (dose: 400.0 mg/kg/injection, schedule: Q01DX009 (ip), vehicle: Klucel (hydroxypropylcellulose) (HPC)) was 6 of 6.

For `C1CC[N-]CC1.Oc1ccccc1C=NCCN=Cc1ccccc1O.[CH3-].[Rh+2]`, the T/C [12] was 127 % of control, the T/C (dose: 100.0 mg/kg/injection, schedule: Q04DX003 (ip), vehicle: saline with Tween-80) was 144 % of control and the T/C (dose: 200.0 mg/kg/injection, schedule: Q04DX003 (ip), vehicle: saline with Tween-80) was 144 % of control.

For `Nc1nc(N)c2cc(S(=O)(=O)c3ccccc3)ccc2n1`, the T/C [10] was 148 % of control and the T/C [11] was 148 % of control.

With `CCCCOCN(COCCCC)C(C)Cc1ccccc1` (centres undefined) the T/C [10] was 144 % of control and the T/C [11] was 141 % of control.

For `Nc1nc(SN=Nc2ccc(S(=O)(=O)O)cc2)c2[nH]cnc2n1`, the T/C (dose: 6.0 mg/kg/injection, schedule: Q01DX009 (ip), vehicle: Klucel (hydroxypropylcellulose) (HPC)) was 130 % of control, the T/C (dose: 6.25 mg/kg/injection, schedule: Q01DX009 (ip), vehicle: Klucel (hydroxypropylcellulose) (HPC)) was 135 % of control and the survivor count (dose: 12.5 mg/kg/injection, schedule: Q01DX009 (ip), vehicle: Klucel (hydroxypropylcellulose) (HPC)) was 6 of 6. The survivor count [5] was 6 of 6, the survivor count [14] was 6 of 6 and the T/C (dose: 67.0 mg/kg/injection, schedule: Q04DX003 (ip), vehicle: Klucel (hydroxypropylcellulose) (HPC)) was 130 % of control. The survivor count [6] was 4 of 4, the T/C (dose: 100.0 mg/kg/injection, schedule: Q04DX003 (ip), vehicle: Klucel (hydroxypropylcellulose) (HPC)) was 125 and 130 % of control and the survivor count [7] was 4 of 5. For the same molecule, the survivor count (dose: 400.0 mg/kg/injection, schedule: Q04DX003 (ip), vehicle: Klucel (hydroxypropylcellulose) (HPC)) was 2 of 6.

`Cc1cc2nc(Oc3ccccc3)nc(=O)n2o1` was tested, and the survivor count [8] was 1 of 6.

For `CC1=CC23C(COC(=O)C24CO4)C(C(=O)O)=CC3C1C` (centres undefined) (tested in a mixture with another compound), the survivor count (dose: 0.13 mg/kg/injection, schedule: Q01DX009 (ip), vehicle: Klucel (hydroxypropylcellulose) (HPC)) was 3 of 3 and the survivor count (dose: 0.5 mg/kg/injection, schedule: Q01DX009 (ip), vehicle: Klucel (hydroxypropylcellulose) (HPC)) was 3 of 3.

Reference: PubChem BioAssay AID328 (DTP/NCI, 2004)
